Values from PubChem BioAssay AID1259261 (Sanger Institute, 2017).

- Test: 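Find kinase silencing that cuts viability alone or with anchor drugs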 (primary screen)
- System: HCC2998 human colorectal cancer cells
- Reagent: siRNA pool against human genes
- Conditions: anchor drugs BYL719 1 µM, cetuximab 5 µg/ml or trametinib 10 nM, each compared with DMSO vehicle
- Measured: 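Viability as fraction of non-targeting control plus robust z-score without drug; synergy scores compare knock-down plus drug against each alone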
- Reading the numbers: viability z-score, knock-down alone: higher = more viable cells than controls; viability fraction, knock-down alone: higher = more viable cells
- Active means: 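Essential when the siRNA-alone viability robust z-score is below -3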
- Meaning of the calls: active = essential; inactive = no change
Shown is an unselected part of 794 reagents. 10 of them (1.3%) were called active. 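Calls reflect knock-down alone without drug; synergy scores with BYL719, cetuximab or trametinib do not affect calls.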 No viability above 1 is reported: the scale is capped. Further read-outs or replicates are left out here. The record does not give: the amount of reagent, the time to read-out.

Depletion of PKIB came out at: viability z-score, knock-down alone -0.336; viability fraction, knock-down alone 0.807; inactive. After knock-down of FOXP1, the record shows viability z-score, knock-down alone -0.888; viability fraction, knock-down alone 0.738; inactive. After knock-down of CDC42BPA, the screen gave viability z-score, knock-down alone -1.13; viability fraction, knock-down alone 0.707; inactive. With knock-down of PRKG2, the screen gave viability z-score, knock-down alone 0.484; viability fraction, knock-down alone 0.91; inactive. With knock-down of GRK2, the record shows viability z-score, knock-down alone 1.21; viability fraction, knock-down alone 1; inactive. GAK gave viability z-score, knock-down alone 0.566; viability fraction, knock-down alone 0.92; inactive.

ROS1 scored viability z-score, knock-down alone -0.083; viability fraction, knock-down alone 0.838; inactive. PANK4 gave viability z-score, knock-down alone -1.05; viability fraction, knock-down alone 0.717; inactive. Against TYK2 the deposit lists viability z-score, knock-down alone -1.33; viability fraction, knock-down alone 0.682; inactive. UCK1 scored viability z-score, knock-down alone 1.21; viability fraction, knock-down alone 1; inactive. After knock-down of PIK3C3, the screen gave viability z-score, knock-down alone -0.219; viability fraction, knock-down alone 0.821; inactive. Silencing of ULK2 came out at: viability z-score, knock-down alone -0.389; viability fraction, knock-down alone 0.8; inactive.

Knock-down of ROR2 came out at: viability z-score, knock-down alone 1.06; viability fraction, knock-down alone 0.982; inactive. With knock-down of MOS the results were viability z-score, knock-down alone 1.21; viability fraction, knock-down alone 1; inactive. After knock-down of CLK1 the results were viability z-score, knock-down alone 1.03; viability fraction, knock-down alone 0.978; inactive. Against CRIM1, the values are viability z-score, knock-down alone -1.36; viability fraction, knock-down alone 0.678; inactive. Silencing of CILK1 resulted in: viability z-score, knock-down alone 1.21; viability fraction, knock-down alone 1; inactive. After knock-down of PAK4, the screen gave viability z-score, knock-down alone -0.878; viability fraction, knock-down alone 0.739; inactive.

MAPK3 gave viability z-score, knock-down alone -0.423; viability fraction, knock-down alone 0.796; inactive.
